This experiment has as its target HHIP-C Glu mutant (K277E/R328E/R350E/K569E/R610E/R613E) (human) (UniProt Q96QV1). The experiment is described as follows: AUC; sedimentation velocity; HHIP-C constructs at 1 mg/mL with 0.16 mM 30-mer heparin (dp30); 10 mM HEPES pH 7.5, 120 mM NaCl; 20 °C; c(s) distributions; both purified.

For one molecule, binding results are on record in publication PMC8660895, “Hedgehog-Interacting Protein is a multimodal antagonist of Hedgehog signalling” (Nature Communications, 2021).

No constants are given. Whether binding was seen depends on the method and setting.

B1: HHIP-C Glu mutant (K277E/R328E/R350E/K569E/R610E/R613E) (domain or fragment, UniProt Q96QV1 213-670)
chain: KHNCFCIQEVVSGLRQPVGALHSGDGSQRLFILEKEGYVKILTPEGEIFKEPYLDIHKLVQSGIEGGDERGLLSLAFHPNYKKNGKLYVSYTTNQERWAIGPHDHILRVVEYTVSEKNPHQVDLRTARVFLEVAELHEKHLGGQLLFGPDGFLYIILGDGMITLDDMEEMDGLSDFTGSVLRLDVDTDMCNVPYSIPRSNPHFNSTNQPPEVFAHGLHDPGRCAVDRHPTDININLTILCSDSNGKNRSSARILQIIKGKDYESEPSLLEFKPFSNGPLVGGFVYRGCQSERLYGSYVFGDRNGNFLTLQQSPVTKQWQEKPLCLGTSGSCRGYFSGHILGFGEDELGEVYILSSSESMTQTHNGKLYKIVDPKRPLMPEECRATVQPAQTLTSECSELCENGYCTPTGKCCCSPGWEGDFCRTAKCEPACRHGGVCVRPNKCLCKKGYLGPQCEQVD
For the molecule B1, the binding entry is “no binding”.
